# Experimental data from PubChem BioAssay AID1487 (National Center for Advancing Translational Sciences (NCATS), 2009).
# Where “and” joins values, the source holds several entries; their conditions need not be identical. Identical values can stand only once. This is one part of the list. These are further read-outs of the screen, such as a control signal, another cell line or another target. No call is given for them. Compounds called inactive in the main read-out are mostly missing here. Potencies come from curve fits of mixed quality, noted in brackets.
# Assay: qHTS Assay for Modulators of Lamin A Splicing
# Details: HeLa LMNA splicing GFP/RFP minigene ratio, 48 h
# Summary of the method: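 S3 HeLa cells stably expressing lamin A-EGFP splicing minigene plus DsRed2, 600 cells/well, 48 h compound exposure at 37C. Laser-scanning cytometry; analysed as GFP (500-530 nm)/RFP (575-640 nm) total intensity ratio; 0.5% DMSO vehicle.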
# [1] = measured here: GFP splicing reporter channel
# [2] = measured here: RFP viability control channel
Compound,AC50 [1],AC50 [2]
COc1ccc(-c2ccc(C3C(C#N)=C(N)Oc4n[nH]c(C)c43)o2)cc1 (stereo not drawn),"22.4 µM [falling, single point]","31.6 µM [falling, single point]"
CCCCCCCCCC[n+]1cccc(C(=O)N(CC)CC)c1,"10 µM [rising, partial curve]","15.8 µM [rising, partial curve]"
Cc1ccc(C(=O)Nc2ccc(N3CCCC3)cc2)cc1,"10 µM [falling, partial curve]","7.08 µM [falling, full curve, poor fit]"
COc1ccc(NC(=S)N(CCCN2CCOCC2)Cc2cn(C)c3ccccc23)cc1OC,–,"17.8 µM [rising, partial curve, poor fit]"
CCCN(CC(=O)Nc1cc(Cl)cc(Cl)c1)CC(=O)Nc1ccc(F)c(F)c1F,"12.6 µM [falling, partial curve]","11.2 µM [falling, single point]"
CNCCCC1c2ccccc2C=Cc2ccccc21,"10 µM [rising, partial curve, poor fit] and 35.5 µM [falling, single point] and 35.5 µM [rising, single point]","7.08 nM [rising, full curve, poor fit] and 5.01 µM [falling, full curve, poor fit]"
COC(=O)c1ccccc1NC(=O)c1ccccc1OC,"14.1 µM [rising, partial curve, poor fit]",–
COc1cccc(-c2cncnc2NCc2ccc(OC)cc2OC)c1,"14.1 µM [falling, partial curve]",–
Cn1c(=O)c(C(=O)Nc2ncccn2)c(O)c2ccccc21,–,"1.41 µM [rising, partial curve]"
COc1cc(C2C(=O)N(C3CCCCCC3)CC(=O)N2CCC2=CCCCC2)ccc1OC(C)C (stereo not drawn),–,"20 µM [rising, single point]"
CC1(C)C2CC=C(/C=N/NC(=S)Nc3cccnc3)C1C2 (stereo not drawn),–,"14.1 µM [falling, single point]"
Cc1ccsc1/C=N\NC(=O)c1ccc2c(c1)OCO2,"12.6 µM [rising, partial curve]",–
COc1ccccc1NC1SC(=O)N(c2ccccc2)C1=O (stereo not drawn),–,"5.62 µM [rising, single point]"
CCOC(=O)Cc1cc(=O)n(-c2nc3ccccc3s2)[nH]1,"14.1 µM [falling, single point]","10 µM [falling, partial curve]"
CC1CCN(C2=C(NS(=O)(=O)c3ccc(Cl)cc3)C(=O)c3ccccc3C2=O)CC1,–,"12.6 µM [rising, partial curve]"
Cc1c(/C=N\NC(=O)c2ccc(F)cc2)cnn1C,–,"0.562 µM [falling, partial curve]"
CC(=O)C1=C(c2ccc(Cl)c(Cl)c2)N(C(C)=O)n2c(nnc2C2CCCCC2)S1,–,"35.5 µM [rising, single point]"

Compound,AC50 [1],AC50 [2]
CCc1c(C)nc(SCC(=O)N2C(C)CCCC2C)[nH]c1=O (stereo not drawn),"35.5 µM [falling, single point]",–
COc1cccc(C(c2sc3ncnn3c2O)N2CCc3ccccc3C2)c1 (stereo not drawn),–,"35.5 µM [rising, single point]"
Cc1cccc(OCc2n(CC(=O)OC3CC(C)CCC3C(C)C)c3ccccc3[n+]2C)c1 (stereo not drawn),"14.1 µM [falling, partial curve, poor fit]","11.2 µM [falling, partial curve]"
CCOc1ccc(OCC)c(NC(=O)c2cc(CN3CCOCC3)on2)c1,–,"3.16 µM [falling, partial curve]"
Cc1ccccc1/C=N\NC(=O)c1ccccc1-n1cccc1,"0.112 µM [rising, full curve, poor fit]",–
O=C(CN(c1ccc(Cl)c(C(F)(F)F)c1)S(=O)(=O)c1ccccc1)N/N=C/c1cccc2c1OCCO2,"3.98 µM [falling, single point]","5.62 µM [falling, partial curve, poor fit]"
CCOc1cccc(CN2CCN(c3cccc(C(F)(F)F)c3)CC2)c1O,–,"31.6 µM [rising, single point]"
Cc1ccc(C(=O)Nc2ncc(Cc3ccc(SC(F)F)cc3)s2)cc1,–,"0.708 µM [rising, full curve]"
COc1ccc(OCC(=O)N2CCN(c3nnc(-c4ccccc4)c4ccccc34)CC2)cc1,"12.6 µM [rising, single point]","31.6 µM [rising, single point]"
O=C(Nc1nc2c(s1)CCCC2)c1ccc(S(=O)(=O)N2CCCc3ccccc32)cc1,"12.6 µM [rising, partial curve]","7.08 µM [rising, partial curve]"
CSc1nc(Nc2cccc(C)c2)c(C#N)c(-c2ccccc2)n1,"12.6 µM [rising, partial curve]","10 µM [rising, partial curve, poor fit]"
COc1ccc(CNc2ccnc(-c3ccccc3CN(C)C)n2)c(OC)c1,"7.94 µM [falling, partial curve]",–
Cc1ccc(N2C(=O)C(NC(=O)c3ccccc3F)(C(F)(F)F)C3=C2CC(C)(C)CC3=O)cc1 (stereo not drawn),"17.8 µM [rising, partial curve]","0.0708 µM [rising, full curve, poor fit]"
O=C(CCS(=O)(=O)c1ccccc1)Nc1nc2c(s1)COc1ccccc1-2,"35.5 µM [falling, single point]","35.5 µM [falling, single point]"
Cc1cccc(C)c1NC(=O)NC1CC2CCC(C1)N2Cc1cccs1 (stereo not drawn),–,"0.141 µM [rising, full curve, poor fit]"
COCCN=C1Sc2nc3c(C)cccc3cc2CN1Cc1ccco1,"35.5 µM [falling, single point]","25.1 µM [falling, single point]"
CCCCCCC[N+](CC)(CC)CCCCc1ccc(Cl)cc1,–,"7.08 µM [falling, partial curve, poor fit]"
